Patent US20250197248A1, “WATER TREATMENT SYSTEM” (KEMIRA OYJ, priority 2022, published 2025)

Assay: Pilot run at a wastewater treatment plant, online monitoring of residual PFA (Hach Cl-17)
Conditions: 15 min retention, monitored over 22 hours

For `O=COO` [PFA, performic acid], the “residual PFA concentration” value (controlled dosing, target 0.5 ppm, FIG. 6A) was roughly 0.5 ppm and the “residual PFA concentration, highest values” (fixed dose 1.2 ppm, FIG. 6B) was “about 0.9 ppm”.
